According to PMC9596403:
No constants are given. Whether binding was seen depends on the method and setting. In cells and extracts the contact can be indirect. Some binding calls cover weakened binding; strength is not graded here.

The chains behind the UniProt entries cited, without tags or fusion partners. Where a name states a change or a piece, a line headed by the entry shows the natural chain unless it says otherwise.
UniProt O96017: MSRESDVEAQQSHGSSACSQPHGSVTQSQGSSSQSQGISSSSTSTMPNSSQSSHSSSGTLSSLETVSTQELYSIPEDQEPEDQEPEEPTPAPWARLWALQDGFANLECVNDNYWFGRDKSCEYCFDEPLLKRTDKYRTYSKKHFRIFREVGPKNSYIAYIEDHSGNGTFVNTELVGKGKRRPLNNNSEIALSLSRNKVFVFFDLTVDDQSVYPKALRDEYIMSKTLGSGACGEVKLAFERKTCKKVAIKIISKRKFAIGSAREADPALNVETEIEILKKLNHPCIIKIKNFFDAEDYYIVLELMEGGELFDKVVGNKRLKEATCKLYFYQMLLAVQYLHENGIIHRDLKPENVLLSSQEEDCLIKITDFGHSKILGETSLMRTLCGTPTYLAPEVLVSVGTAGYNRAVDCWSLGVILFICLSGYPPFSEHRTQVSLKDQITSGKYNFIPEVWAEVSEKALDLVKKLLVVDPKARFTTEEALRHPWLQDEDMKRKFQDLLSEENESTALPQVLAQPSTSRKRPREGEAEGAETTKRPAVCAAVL
UniProt P78527: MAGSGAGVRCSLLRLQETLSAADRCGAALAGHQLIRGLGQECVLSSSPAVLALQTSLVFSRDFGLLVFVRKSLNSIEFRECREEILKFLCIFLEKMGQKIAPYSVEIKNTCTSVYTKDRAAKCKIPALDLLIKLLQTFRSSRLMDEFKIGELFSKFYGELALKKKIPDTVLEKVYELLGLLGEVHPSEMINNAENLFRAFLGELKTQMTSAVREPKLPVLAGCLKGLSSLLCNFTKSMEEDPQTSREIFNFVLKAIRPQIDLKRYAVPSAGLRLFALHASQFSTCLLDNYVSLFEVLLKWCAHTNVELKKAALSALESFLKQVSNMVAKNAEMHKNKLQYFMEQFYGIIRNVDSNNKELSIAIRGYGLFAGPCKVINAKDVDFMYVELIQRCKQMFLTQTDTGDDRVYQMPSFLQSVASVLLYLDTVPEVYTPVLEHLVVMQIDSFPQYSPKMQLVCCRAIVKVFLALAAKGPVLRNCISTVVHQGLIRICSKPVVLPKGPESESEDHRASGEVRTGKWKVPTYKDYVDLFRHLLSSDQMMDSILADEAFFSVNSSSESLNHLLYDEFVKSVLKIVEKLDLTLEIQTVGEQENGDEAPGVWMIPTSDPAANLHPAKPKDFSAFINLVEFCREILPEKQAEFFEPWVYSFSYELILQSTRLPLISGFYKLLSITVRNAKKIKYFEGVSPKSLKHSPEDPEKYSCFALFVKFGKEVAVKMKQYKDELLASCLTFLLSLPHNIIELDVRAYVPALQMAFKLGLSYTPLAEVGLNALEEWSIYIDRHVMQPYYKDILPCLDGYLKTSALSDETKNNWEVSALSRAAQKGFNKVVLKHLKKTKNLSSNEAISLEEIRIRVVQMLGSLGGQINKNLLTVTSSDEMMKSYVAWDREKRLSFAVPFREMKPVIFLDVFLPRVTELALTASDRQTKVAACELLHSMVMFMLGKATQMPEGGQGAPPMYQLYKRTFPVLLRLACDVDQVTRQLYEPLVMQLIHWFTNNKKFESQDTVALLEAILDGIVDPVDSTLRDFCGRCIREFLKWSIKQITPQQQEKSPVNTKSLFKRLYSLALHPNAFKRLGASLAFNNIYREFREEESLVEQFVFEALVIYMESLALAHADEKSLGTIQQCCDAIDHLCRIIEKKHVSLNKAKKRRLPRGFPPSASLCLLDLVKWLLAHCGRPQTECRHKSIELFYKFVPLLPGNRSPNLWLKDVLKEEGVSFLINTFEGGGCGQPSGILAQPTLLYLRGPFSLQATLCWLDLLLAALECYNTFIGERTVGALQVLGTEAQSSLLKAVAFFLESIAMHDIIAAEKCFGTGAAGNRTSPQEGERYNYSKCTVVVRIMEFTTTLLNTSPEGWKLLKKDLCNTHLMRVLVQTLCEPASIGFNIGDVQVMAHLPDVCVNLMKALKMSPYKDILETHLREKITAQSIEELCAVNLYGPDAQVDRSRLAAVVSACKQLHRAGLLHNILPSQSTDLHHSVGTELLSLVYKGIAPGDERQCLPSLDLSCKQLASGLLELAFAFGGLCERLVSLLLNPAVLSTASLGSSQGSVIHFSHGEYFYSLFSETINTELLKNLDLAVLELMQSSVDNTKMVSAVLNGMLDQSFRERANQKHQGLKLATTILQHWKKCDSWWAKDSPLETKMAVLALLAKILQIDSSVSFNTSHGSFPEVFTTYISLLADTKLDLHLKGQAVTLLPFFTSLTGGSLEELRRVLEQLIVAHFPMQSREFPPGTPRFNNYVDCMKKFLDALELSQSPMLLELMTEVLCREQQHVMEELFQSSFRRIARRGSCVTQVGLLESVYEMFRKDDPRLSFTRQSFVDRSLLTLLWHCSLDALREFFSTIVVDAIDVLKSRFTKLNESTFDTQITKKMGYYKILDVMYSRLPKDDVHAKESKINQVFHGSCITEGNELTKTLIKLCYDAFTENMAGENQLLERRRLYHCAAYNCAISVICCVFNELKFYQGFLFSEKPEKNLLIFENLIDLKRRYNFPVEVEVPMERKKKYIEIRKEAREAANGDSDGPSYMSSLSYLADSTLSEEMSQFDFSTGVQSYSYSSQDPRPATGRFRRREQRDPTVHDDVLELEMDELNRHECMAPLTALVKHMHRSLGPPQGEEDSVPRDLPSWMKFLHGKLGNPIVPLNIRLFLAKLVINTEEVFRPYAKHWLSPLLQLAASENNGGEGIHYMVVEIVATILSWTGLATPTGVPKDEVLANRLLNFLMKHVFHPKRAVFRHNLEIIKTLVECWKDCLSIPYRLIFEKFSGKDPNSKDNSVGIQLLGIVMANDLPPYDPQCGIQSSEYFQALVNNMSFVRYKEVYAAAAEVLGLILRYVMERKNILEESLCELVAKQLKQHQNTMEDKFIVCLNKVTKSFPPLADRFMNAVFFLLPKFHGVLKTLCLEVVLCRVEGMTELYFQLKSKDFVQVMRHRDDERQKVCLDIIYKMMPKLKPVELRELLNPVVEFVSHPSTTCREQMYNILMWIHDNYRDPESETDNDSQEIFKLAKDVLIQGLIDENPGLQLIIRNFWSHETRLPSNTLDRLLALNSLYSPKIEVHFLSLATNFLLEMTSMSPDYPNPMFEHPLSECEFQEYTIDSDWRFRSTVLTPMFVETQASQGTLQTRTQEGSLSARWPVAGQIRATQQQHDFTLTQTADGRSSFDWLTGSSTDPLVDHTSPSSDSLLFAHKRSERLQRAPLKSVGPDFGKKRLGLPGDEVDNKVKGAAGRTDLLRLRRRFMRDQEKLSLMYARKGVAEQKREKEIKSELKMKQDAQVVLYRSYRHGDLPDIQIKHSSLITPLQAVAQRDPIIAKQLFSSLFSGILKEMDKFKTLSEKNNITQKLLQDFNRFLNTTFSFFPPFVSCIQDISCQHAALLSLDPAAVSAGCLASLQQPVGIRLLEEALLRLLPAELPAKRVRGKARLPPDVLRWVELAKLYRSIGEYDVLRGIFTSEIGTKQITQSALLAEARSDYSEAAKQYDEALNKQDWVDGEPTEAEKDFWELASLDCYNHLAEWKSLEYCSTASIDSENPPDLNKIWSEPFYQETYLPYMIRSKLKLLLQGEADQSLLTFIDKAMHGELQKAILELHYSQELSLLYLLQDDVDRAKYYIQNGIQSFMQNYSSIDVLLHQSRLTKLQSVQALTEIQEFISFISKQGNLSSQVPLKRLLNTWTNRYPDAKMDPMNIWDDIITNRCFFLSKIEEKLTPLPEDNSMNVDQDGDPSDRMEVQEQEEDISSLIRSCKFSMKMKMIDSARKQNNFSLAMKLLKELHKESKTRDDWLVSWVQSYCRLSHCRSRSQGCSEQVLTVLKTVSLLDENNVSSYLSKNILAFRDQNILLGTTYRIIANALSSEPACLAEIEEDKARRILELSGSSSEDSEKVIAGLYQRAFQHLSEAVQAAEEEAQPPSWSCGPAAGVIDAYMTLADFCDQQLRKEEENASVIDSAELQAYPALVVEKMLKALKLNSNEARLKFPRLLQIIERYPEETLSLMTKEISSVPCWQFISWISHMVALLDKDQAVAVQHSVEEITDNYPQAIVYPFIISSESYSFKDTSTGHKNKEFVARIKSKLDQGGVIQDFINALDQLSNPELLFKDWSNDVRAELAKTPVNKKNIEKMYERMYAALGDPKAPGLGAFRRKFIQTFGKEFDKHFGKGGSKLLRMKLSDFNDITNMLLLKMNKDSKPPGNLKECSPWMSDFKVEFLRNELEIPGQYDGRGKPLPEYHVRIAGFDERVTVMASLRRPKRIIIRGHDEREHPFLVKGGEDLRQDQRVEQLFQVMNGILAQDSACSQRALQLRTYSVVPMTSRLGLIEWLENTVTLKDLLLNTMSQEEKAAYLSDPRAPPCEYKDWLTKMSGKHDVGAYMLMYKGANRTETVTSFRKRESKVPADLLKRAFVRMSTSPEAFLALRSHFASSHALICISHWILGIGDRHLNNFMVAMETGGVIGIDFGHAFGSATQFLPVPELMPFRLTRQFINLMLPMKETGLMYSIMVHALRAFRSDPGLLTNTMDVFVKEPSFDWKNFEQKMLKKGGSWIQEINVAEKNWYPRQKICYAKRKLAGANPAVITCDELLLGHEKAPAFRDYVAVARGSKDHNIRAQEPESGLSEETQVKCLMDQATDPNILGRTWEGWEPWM
UniProt P09874: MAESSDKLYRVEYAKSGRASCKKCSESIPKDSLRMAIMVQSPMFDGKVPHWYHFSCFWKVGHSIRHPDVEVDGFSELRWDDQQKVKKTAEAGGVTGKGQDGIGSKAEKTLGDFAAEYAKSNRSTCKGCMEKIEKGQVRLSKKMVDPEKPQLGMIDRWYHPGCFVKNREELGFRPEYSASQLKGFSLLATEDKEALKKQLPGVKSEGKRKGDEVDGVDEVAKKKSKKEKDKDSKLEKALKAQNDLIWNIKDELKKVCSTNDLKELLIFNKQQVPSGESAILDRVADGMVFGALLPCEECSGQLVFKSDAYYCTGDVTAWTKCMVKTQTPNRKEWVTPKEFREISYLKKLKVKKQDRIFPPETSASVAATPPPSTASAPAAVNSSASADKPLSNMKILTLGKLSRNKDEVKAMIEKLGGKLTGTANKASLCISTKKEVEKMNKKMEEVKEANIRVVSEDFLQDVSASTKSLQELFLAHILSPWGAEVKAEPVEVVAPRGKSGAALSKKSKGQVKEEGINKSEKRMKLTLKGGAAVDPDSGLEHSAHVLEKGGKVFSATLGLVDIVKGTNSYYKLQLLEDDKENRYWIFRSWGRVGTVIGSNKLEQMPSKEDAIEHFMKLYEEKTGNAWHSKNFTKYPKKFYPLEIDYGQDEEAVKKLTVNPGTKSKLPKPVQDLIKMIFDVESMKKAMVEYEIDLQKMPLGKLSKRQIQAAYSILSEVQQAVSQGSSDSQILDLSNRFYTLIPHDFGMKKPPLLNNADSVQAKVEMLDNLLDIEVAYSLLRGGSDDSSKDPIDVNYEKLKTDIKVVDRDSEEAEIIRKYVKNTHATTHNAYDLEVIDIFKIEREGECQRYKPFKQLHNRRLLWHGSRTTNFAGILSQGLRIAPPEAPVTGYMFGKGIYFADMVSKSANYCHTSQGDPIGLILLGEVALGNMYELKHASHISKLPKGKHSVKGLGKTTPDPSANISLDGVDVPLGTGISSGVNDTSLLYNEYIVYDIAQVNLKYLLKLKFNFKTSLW

What was measured:
[1] = molecular target: Checkpoint kinase 2 (CHK2), endogenous (human (endogenous in HT29)) (UniProt O96017); assay: co-IP; endogenous proteins; lysates of HT29-P cells (mock-treated or treated with oxaliplatin) and HT29-OR cells; immunoprecipitated with anti-CHK2 antibody-conjugated agarose; mouse IgG as IP control; western blot
[2] = molecular target: Flag-tagged CHK2 wild-type (F-CHK2-WT) (UniProt O96017); assay: co-IP; lysates of HT29-P cells stably expressing F-CHK2 constructs, treated with oxaliplatin; immunoprecipitated with anti-FLAG M2 affinity gel; western blot for PARP1
[3] = molecular target: Flag-tagged CHK2 phosphomimetic mutant T68D (F-CHK2-TD) (UniProt O96017); assay: co-IP; lysates of HT29-P cells stably expressing F-CHK2 constructs, mock-treated or untreated (no oxaliplatin); immunoprecipitated with anti-FLAG M2 affinity gel; western blot for PARP1
[4] = molecular target: Flag-tagged CHK2 wild-type (F-CHK2-WT) (UniProt O96017); assay: as above

Substance	binding [1]	binding [2]	binding [3]	binding [4]
DNA-dependent protein kinase catalytic subunit (DNA-PKcs), endogenous (from UniProt P78527 1-4128) (enzyme)	binds	–	–	–
poly (ADP-ribose) polymerase 1 (PARP1), endogenous (from UniProt P09874 1-1014) (enzyme)	binds	binds	binds	binds weakly
